Data as given in publication PMC10520887.

The chains behind the UniProt entries cited, without tags or fusion partners. Where a name states a change or a piece, a line headed by the entry shows the natural chain unless it says otherwise.
UniProt B8XX90: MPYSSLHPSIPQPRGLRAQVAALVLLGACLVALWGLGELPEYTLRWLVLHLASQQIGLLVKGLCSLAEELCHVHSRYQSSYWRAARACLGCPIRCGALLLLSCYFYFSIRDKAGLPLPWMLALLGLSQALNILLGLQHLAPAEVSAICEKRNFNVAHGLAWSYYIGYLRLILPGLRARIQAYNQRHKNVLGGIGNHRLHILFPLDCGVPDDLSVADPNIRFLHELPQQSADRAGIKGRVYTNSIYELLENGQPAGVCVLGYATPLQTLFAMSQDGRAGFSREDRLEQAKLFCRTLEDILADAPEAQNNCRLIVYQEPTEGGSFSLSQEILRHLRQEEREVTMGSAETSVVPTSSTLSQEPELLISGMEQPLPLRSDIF

What was measured:
[1] = target: pTBK1-HA (porcine TBK1) (porcine); assay: co-IP; 293T cotransfected with 0.5 μg GFP-STING, 0.5 μg TBK1-HA and increasing pIKKε (0.5, 1, 1.5 μg), IP with anti-HA; or 0.5 μg GFP-STING, 0.5 μg mCherry-IKKε and increasing pTBK1 (0.5, 1, 1.5 μg), IP with anti-mCherry; 48 h; Western blot
[2] = target: mCherry-pTBK1 (porcine TBK1) (porcine); assay: co-IP; HEK293T cotransfected with the two tagged proteins for 48 h (legends; the methods say 24 h); lysis buffer 50 mM Tris pH 7.2, 150 mM NaCl, 1% sodium deoxycholate, 1% Triton X-100; antibody overnight at 4 °C, protein A/G beads 2 h; co-IP and reverse co-IP; Western blot
[3] = target: T1, GFP-pIRF3 (porcine IRF3) (porcine) (UniProt Q764M6); assay: as above
T1 sequence: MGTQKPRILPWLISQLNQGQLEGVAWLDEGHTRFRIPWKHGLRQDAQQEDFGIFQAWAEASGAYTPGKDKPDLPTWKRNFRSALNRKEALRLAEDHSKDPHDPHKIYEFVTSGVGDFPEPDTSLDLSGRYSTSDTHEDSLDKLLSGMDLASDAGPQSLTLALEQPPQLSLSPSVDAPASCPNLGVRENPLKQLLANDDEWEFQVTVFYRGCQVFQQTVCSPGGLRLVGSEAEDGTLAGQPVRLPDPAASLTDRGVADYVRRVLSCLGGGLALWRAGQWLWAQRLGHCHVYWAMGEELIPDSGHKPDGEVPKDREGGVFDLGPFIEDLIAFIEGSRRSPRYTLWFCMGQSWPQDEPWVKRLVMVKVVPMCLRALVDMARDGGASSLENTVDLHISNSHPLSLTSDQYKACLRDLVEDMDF

[4] = target: T2, mCherry-pIKKε (porcine IKKε) (porcine) (UniProt M9MMN5); assay: as above
T2 sequence: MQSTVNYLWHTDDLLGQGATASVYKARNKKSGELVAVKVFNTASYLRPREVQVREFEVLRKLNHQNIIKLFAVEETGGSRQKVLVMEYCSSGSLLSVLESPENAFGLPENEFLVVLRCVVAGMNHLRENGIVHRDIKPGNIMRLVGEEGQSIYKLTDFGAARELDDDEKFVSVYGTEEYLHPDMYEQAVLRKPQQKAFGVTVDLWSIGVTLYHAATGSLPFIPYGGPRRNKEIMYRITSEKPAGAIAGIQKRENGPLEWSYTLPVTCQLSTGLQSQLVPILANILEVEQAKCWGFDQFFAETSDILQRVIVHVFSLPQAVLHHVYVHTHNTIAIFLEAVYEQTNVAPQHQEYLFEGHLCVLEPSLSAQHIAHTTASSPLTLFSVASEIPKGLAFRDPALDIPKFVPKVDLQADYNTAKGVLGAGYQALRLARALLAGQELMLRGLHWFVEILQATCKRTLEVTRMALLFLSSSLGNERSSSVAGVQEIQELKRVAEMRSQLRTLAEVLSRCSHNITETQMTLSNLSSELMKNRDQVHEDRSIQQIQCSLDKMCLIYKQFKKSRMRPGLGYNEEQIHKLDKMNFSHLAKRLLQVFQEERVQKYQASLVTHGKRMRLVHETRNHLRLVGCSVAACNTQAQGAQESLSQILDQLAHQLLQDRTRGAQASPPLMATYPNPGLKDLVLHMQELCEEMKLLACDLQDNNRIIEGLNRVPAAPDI

[5] = target: GFP-pSTING (porcine STING) (porcine) (UniProt B8XX90); assay: as above

In the case of “GFP-pSTING (porcine STING) (from UniProt B8XX90 1-378)”, the binding [1] is reported as “binds” and the binding [2] is reported as “binds”.

In the case of “pTBK1-HA (porcine TBK1) (from UniProt A0A4X1W422)”, the binding [3] is reported as “binds”.

In the case of GFP-pSTING ΔTBM (from UniProt B8XX90), the binding [4] is reported as “no binding”.

For “mCherry-pTBK1 (porcine TBK1) (from UniProt A0A4X1W422)”, the binding [5] was “binds”.

These are yes or no findings as the source states them, for the method shown. In cells and extracts the contact can be indirect. For some assays here: Binding can be weak; no strength is given. For some assays here: Tags and fused reporters may be left off the sequences shown.
